Source: PubChem BioAssay AID743454 (Peter MacCallum Cancer Centre, 2014)
This is one part, drawn at random, of about 18,000 reagents. 450 of them (2.5%) were called active. 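Single biological run; no consistent viability z cut-off exists, so the class columns, not z-scores, define the calls.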 Entries without a mark were called inactive. No sequences are given here.

Assay: 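Knock-downs lowering viability or raising caspase 3/7 activity in vorinostat-treated resistant cells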 (primary screen)
Cells: human HCT116-VR colon cancer cells, selected for vorinostat resistance
Reagent: siRNA pool against human genes, 40 nM siRNA pool
Timing: vorinostat for 24 h, read-out about 72 h after transfection
Treatment: vorinostat at 2.5 µM final
Measurement: 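Two measures, CellTiter-Fluor viability and luminescent caspase 3/7 activity, each as fold change against same-plate mock wells, mean of duplicates, then screen-wide robust z-score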
Reading the numbers: viability robust z-score: higher = more viable cells than screen typical; caspase robust z-score: higher = more caspase 3/7 activity than screen typical
Hit rule: 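a knock-down is a hit when classed RV1 or RV2 for lowered viability, or CA1 or CA2 for caspase activation; those lethal without drug were dropped; hits were retested singly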

gene	viability hit class	caspase hit class	viability robust z-score	caspase robust z-score
TBP (TATA-box binding protein)	no change	no change	-0.24	0.03
NAIP (NLR family apoptosis inhibitory protein)	no change	no change	-0.29	-0.26
LCE2D (late cornified envelope 2D)	no change	no change	0.6	2.39
CYP4F2 (cytochrome P450 family 4 subfamily F member 2)	no change	no change	-0.07	-0.41
CEP89 (centrosomal protein 89)	no change	no change	-0.14	-0.55
VIPAS39	no change	no change	1.08	-0.7
SEC11A (SEC11 homolog A, signal peptidase complex subunit)	no change	no change	0.32	-0.2
PNPLA5 (patatin like domain 5, triacylglycerol lipase)	no change	no change	-0.39	-0.29
ZNF597 (zinc finger protein 597)	no change	no change	0.18	0.8
WDR64 (WD repeat domain 64)	no change	no change	0.44	-0.78
WDR73 (WD repeat domain 73)	no change	no change	0.39	-0.42
BEND2 (BEN domain containing 2)	no change	no change	0.41	-0.68
KIAA1328	no change	no change	1.08	0.44
PIGM (phosphatidylinositol glycan anchor biosynthesis class M)	no change	no change	-0.86	3.37
SEPTIN14 (septin 14)	no change	no change	-0.96	-0.98
DPY19L4 (dpy-19 like 4)	no change	no change	1.48	0.24
OR52A4P (olfactory receptor family 52 subfamily A member 4 pseudogene)	no change	no change	0.18	-0.07
INCA1 (inhibitor of CDK, cyclin A1 interacting protein 1)	no change	no change	-0.82	-0.42

Next part (5 carried over from the part before).
gene	viability hit class	caspase hit class	viability robust z-score	caspase robust z-score
PIGM (phosphatidylinositol glycan anchor biosynthesis class M)	no change	no change	-0.86	3.37
SEPTIN14 (septin 14)	no change	no change	-0.96	-0.98
DPY19L4 (dpy-19 like 4)	no change	no change	1.48	0.24
OR52A4P (olfactory receptor family 52 subfamily A member 4 pseudogene)	no change	no change	0.18	-0.07
INCA1 (inhibitor of CDK, cyclin A1 interacting protein 1)	no change	no change	-0.82	-0.42
FOXA1 (forkhead box A1)	no change	no change	-1.35	2.12
CLASP2 (cytoplasmic linker associated protein 2)	no change	no change	-0.58	1.07
ARRDC4 (arrestin domain containing 4)	no change	no change	0.2	-1.04
C1orf198 (chromosome 1 open reading frame 198)	no change	no change	-1.18	-0.55
CCDC28A (coiled-coil domain containing 28A)	no change	no change	0.08	1.25
UBE2D4 (ubiquitin conjugating enzyme E2 D4)	no change	no change	1.01	0.96
SLC12A5	no change	no change	-0.01	-0.79
DHTKD1 (dehydrogenase E1 and transketolase domain containing 1)	no change	no change	-0.95	-0.9
NEK6 (NIMA related kinase 6)	no change	no change	0.5	-1.06
IGF2BP2 (insulin like growth factor 2 mRNA binding protein 2)	no change	no change	-0.01	2.38
ZNF23 (zinc finger protein 23)	no change	no change	0.64	-0.42
OSBPL10 (oxysterol binding protein like 10)	no change	no change	-0.61	0.11
OR7A5 (olfactory receptor family 7 subfamily A member 5)	no change	no change	-0.04	-1.07
DOCK10 (dedicator of cytokinesis 10)	no change	no change	1.32	-0.01
SLC25A10	no change	no change	-1.21	-0.5
SGK2 (serum/glucocorticoid regulated kinase 2)	no change	no change	0.92	1.52
HPD (4-hydroxyphenylpyruvate dioxygenase)	no change	no change	-0.11	-1.03
RPL38 (ribosomal protein L38)	no change	no change	-4.18	-1.19
THBS4 (thrombospondin 4)	no change	no change	1.14	-1.09
H1-1 (H1.1 linker histone, cluster member)	no change	no change	-0.98	-0.29
TTLL13 (tubulin tyrosine ligase like 13)	no change	no change	0.24	0.56
